Reference: patent US10011814B2, “Salt formulations for the fermentation of marine microorganisms” (Triphase Research and Development I Corp., priority 2006, dated 2018)
Marks after values point to notes of the source that are not given here.

Test system: Salinispora tropica NPS021184
Experiment: Production of Salinosporamide A and analogs in shake flask or tube culture; titers by HPLC of EtOAc extract
Conditions: for Max Titers: Ex.1 Table 2; for Max Avg Titer / relative to Sal A (%): Ex.2 Table 3; for Max Avg Titer: 52 μg/L in production medium
Experimental: Seed cultures were prepared by inoculating frozen stock of Salinispora tropica NPS021184 into seed medium.
(§1) The first seed cultures (either 10 mL medium in a 50-mL tube or 100 mL medium in a 500-mL Erlenmeyer flask) were incubated for 3 to 4 days before inoculating into the second seed media with the same composition as the first seed cultures. The second seed cultures (100 mL medium in a 500-mL Erlenmeyer flask) were incubated for two days before inoculating into the production medium (100 mL medium in a 500-mL Erlenmeyer flask).
The chemically defined salt formulation included: […]
(§2) 3.5 mL of the fermentation culture was mixed with equal volume of EtOAc in an extraction tube to extract the various metabolites from the production culture. The mixture was shaken on a shaker for one hr. An aliquot of the extract (1 mL) was removed and dried under a stream of nitrogen. The dried extract was stored at −20° C. freezer before HPLC analysis. The dried extract was resuspended in 320 μL DMSO and injected into HPLC using the 00TF14 method for analysis.
The production of Salinosporamide A, NPI-0047 and NPI-2065 was monitored by Agilent HP1100 HPLC using an ACE C-18 reversed-phase column (4.6×150 mm), and solvent system consisting of water (0.01% TFA) as solvent A and acetonitrile (0.01% TFA) as solvent B. The elution was started at 100% solvent A for 1 min, 100% solvent A to 35% solvent A gradient in 7 min, held at 35% solvent A for 11 min, 35% solvent A to 100% solvent B in 8 min and held at 100% solvent B for 9 min at a flow rate of 1.5 mL/min with the detector wavelength set at 210 nm and column temperature 35° C.
The first seed cultures (either 10 mL medium in a 50-mL tube or 100 ml medium in a 500-ml Erlenmeyer flask) were incubated for 3 to 4 days before inoculating into the second seed media with the same composition as the first seed cultures. The second seed cultures (100 mL medium in a 500-mL Erlenmeyer flask) were incubated for two days before inoculating into the production medium (100 mL medium in a 500-mL Erlenmeyer flask).
as §1, with “in a 50-ml tube or” for “in a 50-mL tube or”, “inoculating into production medium” for “inoculating into the production medium”
as §2, with “shaken” for “shaken on a shaker”, “1” for “one”, “[…]” for “μL”, “TFS7” for “00TF14”
The production of Salinosporamide A, NPI-0047 and NPI-2065 was monitored by Agilent HP1100 HPLC using an ACE C-18 reversed-phase column (4.6×150 mm), and isocratic solvent system consisting of 67% water (0.01% TFA) and 33% acetonitrile (0.01% TFA). The flow rate was 1.5 mL/min for 15 min with the detector wavelength set at 210 nm and column temperature 35° C.
3.5 mL of the fermentation culture was mixed with equal volume of EtOAc in an extraction tube to extract the various metabolites from the production culture. The mixture was shaken on the shaker for 1 hr. An aliquot of the extract (1 mL) was removed and dried under a stream of nitrogen. The dried extract was stored at −20° C. freezer before HPLC analysis. The dried extract was resuspended in 320 μL DMSO and injected into HPLC using the TFS7 method for analysis. […]

With C[C@@]12OC(=O)[C@]1([C@@H](O)[C@@H]1C=CCCC1)NC(=O)[C@H]2CCCl [NPI-2065] the “Titers (maximum concentrations)” value (BAS.PD + 0.1% Valeric acid) was 2.9 mg/L, the “Maximum Titer” value (Ex.1 Table 1, shake flask, 104 μg/L CoCl2·6H2O in production medium) was 6.1 mg/L and the “Maximum Titer” value (Ex.1 Table 1, shake flask, 1.04 mg/L CoCl2·6H2O in production medium) was 6.8 mg/L. For the same compound, the “Maximum Titer” value (Ex.1 Table 1, shake flask, 10.4 mg/L CoCl2·6H2O in production medium) was 5.3 mg/L, the “Maximum Titer” value (Ex.1 Table 1, shake flask, no CoCl2·6H2O addition to production medium) was 7.7 mg/L and the “Max Titers” value (2.6 μg/L CoCl2·6H2O in production medium) was 6.1 mg/L. The “Max Titers” value (5.2 μg/L CoCl2·6H2O in production medium) was 6.5 mg/L, the “Max Titers” value (6.5 μg/L CoCl2·6H2O in production medium) was 6.2 mg/L and the “Max Titers” value (13 μg/L CoCl2·6H2O in production medium) was 6.5 mg/L. For the same compound, the “Max Titers” value (26 μg/L CoCl2·6H2O in production medium) was 6.8 mg/L, the “Max Titers” value (52 μg/L CoCl2·6H2O in production medium) was 6.3 mg/L and the “Max Titers” value (104 μg/L CoCl2·6H2O in production medium) was 6.5 mg/L. For the same compound, the “Max Titers” value (208 μg/L CoCl2·6H2O in production medium) was 6.2 mg/L, the “Max Titers” value (416 μg/L CoCl2·6H2O in production medium) was 5.6 mg/L and the “Max Titers” value (shake flask, control, no CoCl2·6H2O in production medium) was 6.6 mg/L. The “Max Avg Titer” value (CoCl2·6H2O in seed medium 0 μg/L) was 6.5 mg/L, the “Max Avg Titer” value (CoCl2·6H2O in seed medium 2.6 μg/L) was 6.6 mg/L and the “Max Avg Titer” value (CoCl2·6H2O in seed medium 5.2 μg/L) was 6.8 mg/L. For the same compound, the “Max Avg Titer” value (CoCl2·6H2O in seed medium 13 μg/L) was 6.9 mg/L, the “Max Avg Titer” value (CoCl2·6H2O in seed medium 26 μg/L) was 8.4 mg/L and the “Max Avg Titer” value (CoCl2·6H2O in seed medium 52 μg/L) was 7.9 mg/L. For the same compound, the “Max Avg Titer” value (CoCl2·6H2O in seed medium 104 μg/L) was 7.7 mg/L, the “Max Avg Titer” value (CoCl2·6H2O in seed medium 208 μg/L) was 8.1 mg/L and the “Max Avg Titer” value (CoCl2·6H2O in seed medium 416 μg/L) was 6.9 mg/L. The “relative to Sal A (%)” value (seed CoCl2·6H2O 0 μg/L) was 2.2%, the “relative to Sal A (%)” value (seed CoCl2·6H2O 2.6 μg/L) was 2.2% and the “relative to Sal A (%)” value (seed CoCl2·6H2O 5.2 μg/L) was 2.2%. For the same compound, the “relative to Sal A (%)” value (seed CoCl2·6H2O 13 μg/L) was 2.3%, the “relative to Sal A (%)” value (seed CoCl2·6H2O 26 μg/L) was 2.3% and the “relative to Sal A (%)” value (seed CoCl2·6H2O 52 μg/L) was 2.4%. The “relative to Sal A (%)” value (seed CoCl2·6H2O 104 μg/L) was 2.2%, the “relative to Sal A (%)” value (seed CoCl2·6H2O 208 μg/L) was 2.2% and the “relative to Sal A (%)” value (seed CoCl2·6H2O 416 μg/L) was 2.2%. The Titer (Ex.4 Table 9, Chemically Defined Salt Formulation + Na2SO4 + 52 μg/L CoCl2·6H2O (Medium Lo.Maz, low chloride)) was 3.4 mg/L, the Titer (Ex.4 Table 9, Chemically Defined Salt Formulation + NaCl + 52 μg/L CoCl2·6H2O, average of two experiments) was 5.2* mg/L and the Titer (Ex.4 Table 9, production medium with INSTANT OCEAN) was 7.8 mg/L. For the same compound, the Titer (Ex.4 Table 9, production medium: Chemically Defined Salt Formulation + NaCl) was 7.7 mg/L, the Titer (Ex.5 Table 12, seed Lo.BNA, production SHY.KcMC, 16 mM sodium by ICP-MS, culture age 3 days) was 0.9 mg/L and the Titer (Ex.5 Table 12, seed Lo.BNA, production SHY.KcMC, 16 mM sodium by ICP-MS, culture age 4 days) was 2.5 mg/L. For the same compound, the Titer (Ex.5 Table 12, seed Lo.BNA, production SHY.KcMC, 16 mM sodium by ICP-MS, culture age 5 days) was 3.5 mg/L, the Titer (Ex.5 Table 12, seed Lo.BNA, production SHY.KcMC, 16 mM sodium by ICP-MS, culture age 6 days) was 4.0 mg/L and the Titers (Ex.6 Table 13, washed cells, seed A1.Kc4C, production SHY.KcMC, 11 mM sodium by ICP-MS, culture age 3 days) was 0.7 mg/L. It also gave a Titers (Ex.6 Table 13, washed cells, seed A1.Kc4C, production SHY.KcMC, 11 mM sodium by ICP-MS, culture age 4 days) of 1.0 mg/L, a Titers (Ex.6 Table 13, washed cells, seed A1.Kc4C, production SHY.KcMC, 11 mM sodium by ICP-MS, culture age 5 days) of 1.8 mg/L and a Titers (Ex.6 Table 13, washed cells, seed A1.Kc4C, production SHY.KcMC, 11 mM sodium by ICP-MS, culture age 6 days) of 2.1 mg/L. For the same compound, the Titers (Ex.8 Table 16, seed SHY.KCD, production SHY.KcMC, 11 mM sodium by ICP-MS, culture age 3 days) was 0.4 mg/L, the Titers (Ex.8 Table 16, seed SHY.KCD, production SHY.KcMC, 11 mM sodium by ICP-MS, culture age 4 days) was 2.4 mg/L and the Titers (Ex.8 Table 16, seed SHY.KCD, production SHY.KcMC, 11 mM sodium by ICP-MS, culture age 5 days) was 2.8 mg/L. The Titers (Ex.8 Table 16, seed SHY.KCD, production SHY.KcMC, 11 mM sodium by ICP-MS, culture age 6 days) was 3.7 mg/L, the Titers (INSTANT OCEAN-based media, day 4, condition 1 (Control): seed no cobalt addition, production no cobalt addition) was 7.3 mg/L and the Titers (INSTANT OCEAN-based media, day 4, condition 2: seed no cobalt addition, production +13 μg/L CoCl2•6H2O) was 6.9 mg/L. The Titers (INSTANT OCEAN-based media, day 4, condition 3: seed no cobalt addition, production +52 μg/L CoCl2•6H2O) was 5.7 mg/L, the Titers (INSTANT OCEAN-based media, day 4, condition 4: seed no cobalt addition, production +208 μg/L CoCl2•6H2O) was 6.0 mg/L and the Titers (INSTANT OCEAN-based media, day 4, condition 5: seed +52 μg/L CoCl2•6H2O, production no cobalt addition) was 6.2 mg/L. The Titers (INSTANT OCEAN-based media, day 4, condition 6: seed +52 μg/L, production +13 μg/L CoCl2•6H2O) was 5.8 mg/L, the Titers (INSTANT OCEAN-based media, day 4, condition 7: seed +52 μg/L, production +52 μg/L CoCl2•6H2O) was 5.7 mg/L and the Titers (INSTANT OCEAN-based media, day 4, condition 8: seed +5 μg/L, production +208 μg/L CoCl2•6H2O) was 5.9 mg/L. It also gave a Titers (INSTANT OCEAN-based media, day 4, condition 9: seed +208 μg/L CoCl2•6H2O, production no cobalt addition) of 6.4 mg/L, a Titers (INSTANT OCEAN-based media, day 4, condition 10: seed +208 μg/L, production +13 μg/L CoCl2•6H2O) of 6.1 mg/L and a Titers (INSTANT OCEAN-based media, day 4, condition 11: seed +208 μg/L, production +52 μg/L CoCl2•6H2O) of 6.5 mg/L. For the same compound, the Titers (INSTANT OCEAN-based media, day 4, condition 12: seed +208 μg/L, production +208 μg/L CoCl2•6H2O) was 6.1 mg/L, the “Maximum Titer” value (Instant Ocean based media, 0x Vitamin B12: seed 0, production 0) was 6.3 mg/L and the “Maximum Titer” value (Instant Ocean based media, 1x Vitamin B12: seed and production 0.296 mg/L (0.22 μM)) was 4.9 mg/L. The “Maximum Titer” value (Instant Ocean based media, 1x vitamin B12P: seed 0, production 0.296 mg/L (0.22 μM) Vitamin B12) was 4.4 mg/L, the “Maximum Titer” value (Instant Ocean based media, 4x Vitamin B12: seed and production 1.185 mg/L (0.88 μM)) was 5.4 mg/L and the “Maximum Titer” value (Instant Ocean based media, 10x Vitamin B12: seed and production 2.96 mg/L (2.2 μM)) was 4.9 mg/L. For the same compound, the “Titers (maximum concentrations)” value (LoCl.PD + 0.1% Valeric acid) was 1.5 mg/L, the Titer (NPS21184, production medium with salt formulation, NaCl 0 g/L) was 0 mg/L and the Titer (NPS21184, production medium with salt formulation, NaCl 5 g/L) was 0 mg/L. It also gave a Titer (NPS21184, production medium with salt formulation, NaCl 10 g/L) of 3.9 mg/L, a Titer (NPS21184, production medium with salt formulation, NaCl 15 g/L) of 6.2 mg/L and a Titer (NPS21184, production medium with salt formulation, NaCl 20 g/L) of 6.2 mg/L. The Titer (NPS21184, production medium with salt formulation, NaCl 24 g/L) was 6.2 mg/L, the Titer (NPS21184, production medium with salt formulation, NaCl 30 g/L) was 4.2 mg/L and the “Maximum Titer” value (defined salt formulation based media, 1× CoCl2•6H2O: seed and production 52 μ/L (0.22 μM) CoCl2•6H2O) was 6.6 mg/L. For the same compound, the “Maximum Titer” value (defined salt formulation based media, 1× vitamin B12: seed and production 0.296 mg/L (0.22 μM) Vitamin B12) was 7.2 mg/L, the “Maximum Titer” value (defined salt formulation based media, Control: no vitamin B12 or cobalt supplement) was 5.6 mg/L and the “Titers (maximum concentrations)” value (low chloride production medium LoCl.PD, no valeric acid) was 0.99 mg/L. For the same compound, the “Titers (maximum concentrations)” value (saline production medium BAS.PD, no valeric acid) was 5.5 mg/L.
